In publication doi:10.1101/2025.01.09.631668:
Results are given in words; binding and its absence hold for the method and conditions named. For some assays here: Binding seen in cells or lysates may run through a third protein. Some entries that bind do so weakly or less than the wild type. Sequences can lack the tags named with a protein.

T1: HIGH OSMOTIC STRESS GENE EXPRESSION 5 (HOS5), YFP-fragment fusion for BiFC (Arabidopsis thaliana) (UniProt Q8W4B1)
T1 sequence: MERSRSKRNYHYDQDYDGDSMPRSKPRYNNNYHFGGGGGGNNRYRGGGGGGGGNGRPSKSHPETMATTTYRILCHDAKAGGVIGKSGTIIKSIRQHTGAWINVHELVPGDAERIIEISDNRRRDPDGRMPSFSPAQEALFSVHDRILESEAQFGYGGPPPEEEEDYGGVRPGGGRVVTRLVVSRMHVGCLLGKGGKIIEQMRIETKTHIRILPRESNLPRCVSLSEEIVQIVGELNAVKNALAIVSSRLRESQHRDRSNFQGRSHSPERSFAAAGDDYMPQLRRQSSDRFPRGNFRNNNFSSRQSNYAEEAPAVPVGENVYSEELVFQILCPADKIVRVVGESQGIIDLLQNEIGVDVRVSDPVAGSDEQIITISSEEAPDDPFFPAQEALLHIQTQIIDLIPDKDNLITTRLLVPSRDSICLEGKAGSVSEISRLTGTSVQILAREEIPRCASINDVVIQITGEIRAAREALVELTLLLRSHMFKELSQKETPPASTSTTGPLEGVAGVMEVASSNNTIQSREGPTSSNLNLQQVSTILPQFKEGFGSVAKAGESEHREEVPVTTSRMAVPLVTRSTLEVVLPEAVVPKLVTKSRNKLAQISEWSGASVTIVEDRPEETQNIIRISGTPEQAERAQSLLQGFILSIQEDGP

T2: HIGH OSMOTIC STRESS GENE EXPRESSION 5 (HOS5), yeast two-hybrid fusion (Arabidopsis thaliana) (UniProt Q8W4B1)
T2 sequence: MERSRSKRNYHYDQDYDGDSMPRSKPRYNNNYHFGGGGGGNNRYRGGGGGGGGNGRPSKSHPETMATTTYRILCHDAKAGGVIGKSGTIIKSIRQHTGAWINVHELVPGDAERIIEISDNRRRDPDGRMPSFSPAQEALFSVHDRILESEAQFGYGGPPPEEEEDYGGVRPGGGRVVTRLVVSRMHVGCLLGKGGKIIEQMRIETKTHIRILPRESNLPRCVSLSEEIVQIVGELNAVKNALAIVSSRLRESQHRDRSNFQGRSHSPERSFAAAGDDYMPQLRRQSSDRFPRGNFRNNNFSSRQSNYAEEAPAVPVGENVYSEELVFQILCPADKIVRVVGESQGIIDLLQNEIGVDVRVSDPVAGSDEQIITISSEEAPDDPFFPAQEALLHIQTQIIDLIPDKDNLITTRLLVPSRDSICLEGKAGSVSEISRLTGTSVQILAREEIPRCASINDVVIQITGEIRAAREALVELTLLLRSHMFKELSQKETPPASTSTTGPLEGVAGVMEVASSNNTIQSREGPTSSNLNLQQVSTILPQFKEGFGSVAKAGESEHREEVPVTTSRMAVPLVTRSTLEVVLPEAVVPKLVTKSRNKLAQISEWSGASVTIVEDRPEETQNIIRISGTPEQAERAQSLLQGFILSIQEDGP


Columns and labels:
[1] = target: T1, HIGH OSMOTIC STRESS GENE EXPRESSION 5 (HOS5), YFP-fragment fusion for BiFC (Arabidopsis thaliana); experiment: split reporter
[2] = target: T2, HIGH OSMOTIC STRESS GENE EXPRESSION 5 (HOS5), yeast two-hybrid fusion (Arabidopsis thaliana); experiment: two-hybrid

| binding [1] | binding [2] | Binder |
| --- | --- | --- |
| binds | – | FLOWERING LOCUS K (FLK), YFP-fragment fusion for BiFC (protein, UniProt Q9SR13 1-577) MAEAEDQQNFVAHNGDQVPDQGSDELHNGLPYQVHDETLVHQPYEVEDPILEPQQYEVPDPTLEPQQYEVPDQTLEPQQYEVDDQLEYHQYQLQDQANEDVQDHSQDDLQYQPQNQEQFQLQDEAHDQAQYQAQGDVQDHNGDEVQDKVEDEEGIPEHLESLQKSEPEEDATVGGEEKRWPGWPGETVFRMLVPAQKVGSIIGRKGDVIKKIVEETRARIKILDGPPGTTERAVMVSGKEEPESSLPPSMDGLLRVHMRIVDGLDGEASQAPPPSKVSTRLLVPASQAGSLIGKQGGTVKAIQEASACIVRVLGSEDLPVFALQDDRVVEVVGEPTSVHRALELIASHLRKFLVDRSIIPFFENQMQKPTRQMDHMPPPHQSWGPPQGHAPSVGGGGYGHNPPPYMQPPPRHDSYYPPPEMRQPPMEKQPHQGISAYGREPPMNVHVSSAPPMVAQQVTQQMQIPLSYADAVIGTSGSNISYTRRLSGATVTIQETRGVPGEMTVEVSGTGSQVQTAVQLIQNFMAEAGAPAPAQPQTVAPEQQGYNPYATHGSVYAAAPTNPPGGYATDYSSGYGY |
| – | binds | FLOWERING LOCUS K (FLK), yeast two-hybrid fusion (protein, UniProt Q9SR13 1-577) MAEAEDQQNFVAHNGDQVPDQGSDELHNGLPYQVHDETLVHQPYEVEDPILEPQQYEVPDPTLEPQQYEVPDQTLEPQQYEVDDQLEYHQYQLQDQANEDVQDHSQDDLQYQPQNQEQFQLQDEAHDQAQYQAQGDVQDHNGDEVQDKVEDEEGIPEHLESLQKSEPEEDATVGGEEKRWPGWPGETVFRMLVPAQKVGSIIGRKGDVIKKIVEETRARIKILDGPPGTTERAVMVSGKEEPESSLPPSMDGLLRVHMRIVDGLDGEASQAPPPSKVSTRLLVPASQAGSLIGKQGGTVKAIQEASACIVRVLGSEDLPVFALQDDRVVEVVGEPTSVHRALELIASHLRKFLVDRSIIPFFENQMQKPTRQMDHMPPPHQSWGPPQGHAPSVGGGGYGHNPPPYMQPPPRHDSYYPPPEMRQPPMEKQPHQGISAYGREPPMNVHVSSAPPMVAQQVTQQMQIPLSYADAVIGTSGSNISYTRRLSGATVTIQETRGVPGEMTVEVSGTGSQVQTAVQLIQNFMAEAGAPAPAQPQTVAPEQQGYNPYATHGSVYAAAPTNPPGGYATDYSSGYGY |
